Consider three molecules from PMC7272611.

Amino acid sequences for entries named in this document (tags omitted). A change or cut given only in a name is not applied to a line headed by its entry.
UniProt Q8SWX0: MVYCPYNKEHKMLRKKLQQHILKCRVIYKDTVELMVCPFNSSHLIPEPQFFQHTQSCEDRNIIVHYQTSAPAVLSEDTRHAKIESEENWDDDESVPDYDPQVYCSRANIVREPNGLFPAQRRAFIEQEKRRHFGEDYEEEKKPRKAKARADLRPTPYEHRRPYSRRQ
UniProt O97159: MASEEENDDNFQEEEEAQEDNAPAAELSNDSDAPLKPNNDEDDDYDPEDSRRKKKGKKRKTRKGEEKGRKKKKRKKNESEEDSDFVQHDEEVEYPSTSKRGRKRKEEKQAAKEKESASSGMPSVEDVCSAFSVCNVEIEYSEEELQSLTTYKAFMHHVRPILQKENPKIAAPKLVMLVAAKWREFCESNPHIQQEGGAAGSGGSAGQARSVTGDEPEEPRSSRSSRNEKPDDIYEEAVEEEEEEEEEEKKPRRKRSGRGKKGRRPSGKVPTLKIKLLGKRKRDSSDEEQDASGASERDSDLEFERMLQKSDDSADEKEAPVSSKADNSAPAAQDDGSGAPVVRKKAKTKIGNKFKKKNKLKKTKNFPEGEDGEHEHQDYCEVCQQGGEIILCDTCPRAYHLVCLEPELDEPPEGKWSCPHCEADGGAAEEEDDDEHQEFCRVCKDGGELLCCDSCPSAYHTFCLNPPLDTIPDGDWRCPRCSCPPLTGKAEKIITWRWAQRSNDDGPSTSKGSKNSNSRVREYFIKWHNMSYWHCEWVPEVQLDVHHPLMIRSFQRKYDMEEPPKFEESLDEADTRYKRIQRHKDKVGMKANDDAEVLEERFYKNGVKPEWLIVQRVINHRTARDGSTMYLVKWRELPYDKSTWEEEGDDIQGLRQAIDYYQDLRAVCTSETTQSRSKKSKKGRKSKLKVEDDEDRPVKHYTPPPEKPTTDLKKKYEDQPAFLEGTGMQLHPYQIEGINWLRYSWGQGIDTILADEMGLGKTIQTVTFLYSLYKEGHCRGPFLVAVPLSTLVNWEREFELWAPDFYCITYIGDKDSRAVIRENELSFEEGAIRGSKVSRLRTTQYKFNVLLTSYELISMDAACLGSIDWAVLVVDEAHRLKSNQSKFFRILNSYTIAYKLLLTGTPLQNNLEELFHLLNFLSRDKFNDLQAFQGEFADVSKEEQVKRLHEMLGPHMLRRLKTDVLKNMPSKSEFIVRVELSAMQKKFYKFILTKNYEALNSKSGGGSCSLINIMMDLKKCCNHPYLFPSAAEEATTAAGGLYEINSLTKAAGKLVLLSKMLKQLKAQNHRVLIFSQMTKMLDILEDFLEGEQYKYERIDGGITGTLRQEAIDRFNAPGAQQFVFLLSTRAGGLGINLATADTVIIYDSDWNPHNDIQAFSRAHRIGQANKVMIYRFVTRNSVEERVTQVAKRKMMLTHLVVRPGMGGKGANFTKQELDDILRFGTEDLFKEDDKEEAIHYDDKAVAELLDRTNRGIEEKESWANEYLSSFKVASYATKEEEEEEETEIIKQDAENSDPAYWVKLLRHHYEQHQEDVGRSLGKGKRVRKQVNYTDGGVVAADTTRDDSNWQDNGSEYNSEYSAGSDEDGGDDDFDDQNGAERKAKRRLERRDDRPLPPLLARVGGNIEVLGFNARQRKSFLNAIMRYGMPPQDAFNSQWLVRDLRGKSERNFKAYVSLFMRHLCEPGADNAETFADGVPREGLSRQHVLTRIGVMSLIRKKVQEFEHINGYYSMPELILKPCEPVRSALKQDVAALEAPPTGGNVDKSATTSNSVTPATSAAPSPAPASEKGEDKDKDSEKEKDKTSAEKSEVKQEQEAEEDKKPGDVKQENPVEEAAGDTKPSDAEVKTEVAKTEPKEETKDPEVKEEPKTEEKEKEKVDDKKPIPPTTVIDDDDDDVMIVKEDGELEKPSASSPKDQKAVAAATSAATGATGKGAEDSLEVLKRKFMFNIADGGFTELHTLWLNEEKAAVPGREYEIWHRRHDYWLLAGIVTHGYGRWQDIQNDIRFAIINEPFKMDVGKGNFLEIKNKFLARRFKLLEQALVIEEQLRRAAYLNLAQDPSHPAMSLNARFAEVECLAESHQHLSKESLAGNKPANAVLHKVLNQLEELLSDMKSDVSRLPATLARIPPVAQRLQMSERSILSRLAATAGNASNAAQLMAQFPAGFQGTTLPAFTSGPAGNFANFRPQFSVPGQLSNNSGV
UniProt Q94517: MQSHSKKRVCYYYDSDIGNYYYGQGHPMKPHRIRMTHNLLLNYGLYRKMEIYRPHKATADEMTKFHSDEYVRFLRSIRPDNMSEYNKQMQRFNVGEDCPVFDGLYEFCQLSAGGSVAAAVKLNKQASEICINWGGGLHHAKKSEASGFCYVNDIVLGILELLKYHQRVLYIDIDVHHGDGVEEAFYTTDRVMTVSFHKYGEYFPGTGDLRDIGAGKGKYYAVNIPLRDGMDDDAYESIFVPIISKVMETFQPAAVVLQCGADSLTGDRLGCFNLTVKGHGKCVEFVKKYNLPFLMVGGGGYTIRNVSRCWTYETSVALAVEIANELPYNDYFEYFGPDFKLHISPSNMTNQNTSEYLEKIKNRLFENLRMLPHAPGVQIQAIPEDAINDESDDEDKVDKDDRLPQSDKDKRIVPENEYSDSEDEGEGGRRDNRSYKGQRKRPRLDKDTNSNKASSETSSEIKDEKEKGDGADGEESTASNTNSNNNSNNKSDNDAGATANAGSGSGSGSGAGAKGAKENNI

B1: Piwi (protein, UniProt Q9VKM1 1-843)
chain: MADDQGRGRRRPLNEDDSSTSRGSGDGPRVKVFRGSSSGDPRADPRIEASRERRALEEAPRREGGPTERKPWGDQYDYLNTRPAELVSKKGTDGVPVMLQTNFFRLKTKPEWRIVHYHVEFEPSIENPRVRMGVLSNHANLLGSGYLFDGLQLFTTRKFEQEITVLSGKSKLDIEYKISIKFVGFISCAEPRFLQVLNLILRRSMKGLNLELVGRNLFDPRAKIEIREFKMELWPGYETSIRQHEKDILLGTEITHKVMRTETIYDIMRRCSHNPARHQDEVRVNVLDLIVLTDYNNRTYRINDVDFGQTPKSTFSCKGRDISFVEYYLTKYNIRIRDHNQPLLISKNRDKALKTNASELVVLIPELCRVTGLNAEMRSNFQLMRAMSSYTRMNPKQRTDRLRAFNHRLQNTPESVKVLRDWNMELDKNVTEVQGRIIGQQNIVFHNGKVPAGENADWQRHFRDQRMLTTPSDGLDRWAVIAPQRNSHELRTLLDSLYRAASGMGLRIRSPQEFIIYDDRTGTYVRAMDDCVRSDPKLILCLVPNDNAERYSSIKKRGYVDRAVPTQVVTLKTTKNRSLMSIATKIAIQLNCKLGYTPWMIELPLSGLMTIGFDIAKSTRDRKRAYGALIASMDLQQNSTYFSTVTECSAFDVLANTLWPMIAKALRQYQHEHRKLPSRIVFYRDGVSSGSLKQLFEFEVKDIIEKLKTEYARVQLSPPQLAYIVVTRSMNTRFFLNGQNPPPGTIVDDVITLPERYDFYLVSQQVRQGTVSPTSYNVLYSSMGLSPEKMQKLTYKMCHLYYNWSGTTRVPAVCQYAKKLATLVGTNLHSIPQNALEKKFYYL

No constants are given. Whether binding was seen depends on the method and setting. Binding seen in cells or lysates may run through a third protein. These calls come from enrichment with a bait or labelling near it, and not all partners need be listed.

The assay has as its target GST-Gtsf1 (Drosophila) (UniProt Q8SWX0). The experiment in a line: affinity purification with mass spectrometry; pulldown with recombinant GST-Gtsf1 as bait in nuclear lysates of cultured OSCs, GST as control, followed by mass spectrometry; only the target purified.
For Mi-2 (from UniProt O97159 1-1982), the binding entry is on record as “binds”.

Take Rpd3 (from UniProt Q94517 1-521): the binding result is reported as “binds”.

Regarding B1, the binding entry is listed as “binds”.
